Test results taken from patent publication US7323260B2, “Lubricant, recording medium and carboxylic acid compound” (Sony Corporation, priority 2003, dated 2008).

Legend:
[1] = Friction coefficient of sample tape coated with the lubricant, after 1000 runs; settings: 1 mg/m^2 on carbon film layer
[2] = Shuttle durability of sample tape: playback output change after 100 runs on AIT2 deck; settings: difference between initial output and playback output after 100 runs; for Shuttle durability (dB) (−5° C.): 20% RH
[3] = Corrosion resistance: magnetic deterioration rate after storage in corrosive gas environment; settings: 5 hours, 35° C., 70% RH, 2 ppm H2S and 1 ppm HCl; Tables 8 and 9
[4] = Corrosion resistance: magnetic deterioration rate after storage in high-temperature, high-humidity environment; settings: one week at 60° C. and 80% RH; Tables 8 and 9

Row | Compound | Friction coefficient (40° C., 80% RH) [1] | Shuttle durability (dB) (40° C., 20% RH) [2] | Shuttle durability (dB) (−5° C.) [2] | Corrosive gas environment (magnetic deterioration rate) [3] | High-temperature, high-humidity environment (magnetic deterioration rate) [4]
1 | CCCCCCCCCCCCCCCCCCN [Comparative Example 1, C18H37NH2, reference compound] | 0.30 | −7.0 | −9.0 | Δ (magnetic deterioration rate is 5% or less) | –
2 | COC(=O)CCCCCCCCCCC(F)(F)C(F)(F)C(F)(F)C(F)(F)C(F)(F)C(F)(F)C(F)(F)C(F)(F)F [Comparative Example 2, CF3(CF2)7(CH2)10COOCH3, reference compound] | 0.50 | −4.0 | −5.0 | – | –
3 | CCCCCCCCCCCCCCCCCCC(CC(=O)OCC(F)(OC(F)(C(F)(F)F)C(F)(F)OC(F)(C(F)(F)F)C(F)(F)OC(F)(C(F)(F)F)C(F)(F)F)C(F)(F)F)C(=O)O (centres unmarked) [Comparative Example 4, C18H37CH(COOH)CH2COOCH2CF(CF3)(OCF(CF3)CF2)3F, reference compound] | 0.35 | −4.0 | −3.0 | Δ (magnetic deterioration rate is 5% or less) | –
4 | O=C(O)CCCC(=O)OCCC(F)(F)C(F)(F)C(F)(F)C(F)(F)C(F)(F)C(F)(F)C(F)(F)C(F)(F)F [Comparative Example 6, CF3(CF2)7(CH2)2OCO(CH2)3COOH, reference compound] | 0.55 | −3.5 | −3.5 | Δ (magnetic deterioration rate is 5% or less) | –
5 | CCCCCCCCCCCCCCCCCCC(CC(=O)OCC(CC(F)(F)C(F)(F)C(F)(F)C(F)(F)C(F)(F)C(F)(F)F)OC(=O)CC(CCCCCCCCCCCCCCCCCC)C(=O)O)C(=O)O (centres unmarked) [Comparative Example 7, C18H37CH(COOH)CH2COOCH(CH2C6F13)CH2OCOCH2CH(COOH)C18H37, reference compound] | 0.23 | −4.0 | −3.5 | ◯ (magnetic deterioration rate is 3% or less) | ◯ (magnetic deterioration rate is 3% or less)
6 | O=C(O)CC(OC(=O)CCCCCCCCCCC(F)(F)C(F)(F)C(F)(F)C(F)(F)C(F)(F)C(F)(F)C(F)(F)C(F)(F)F)C(=O)O (centres unmarked) [Example 1, CF3(CF2)7(CH2)10COOCH(COOH)CH2COOH] | 0.20 | −0.8 | −0.3 | ⊙ (magnetic deterioration rate is 1% or less) | ⊙ (magnetic deterioration rate is 1% or less)
7 | O=C(O)CC(OC(=O)CCCCCCCCCCC(F)(F)C(F)(F)C(F)(F)C(F)(F)F)C(=O)O (centres unmarked) [Example 2, CF3(CF2)3(CH2)10COOCH(COOH)CH2COOH] | 0.23 | −1.0 | −0.5 | ◯ (magnetic deterioration rate is 3% or less) | ⊙ (magnetic deterioration rate is 1% or less)
8 | CCCCCCCCCCCCCCCCCC(=O)OC(CC(=O)O)C(=O)O (centres unmarked) [Example 3, C17H35COOCH(COOH)CH2COOH] | 0.25 | −1.0 | −0.5 | ⊙ (magnetic deterioration rate is 1% or less) | ⊙ (magnetic deterioration rate is 1% or less)
9 | O=C(O)CC(OC(=O)C(F)(F)C(F)(F)C(F)(F)C(F)(F)C(F)(F)C(F)(F)C(F)(F)C(F)(F)F)C(=O)O (centres unmarked) [Example 5, CF3(CF2)7COOCH(COOH)CH2COOH] | 0.27 | −1.7 | −1.0 | ⊙ (magnetic deterioration rate is 1% or less) | ◯ (magnetic deterioration rate is 3% or less)
10 | O=C(O)CC(OC(=O)C(F)(F)C(F)(F)C(F)(F)C(F)(F)C(F)(F)C(F)(F)C(F)(F)C(F)F)C(=O)O (centres unmarked) [Example 6, CHF2(CF2)7COOCH(COOH)CH2COOH] | 0.25 | −1.5 | −1.0 | ⊙ (magnetic deterioration rate is 1% or less) | ⊙ (magnetic deterioration rate is 1% or less)
11 | O=C(O)CC(CC(=O)OCCC(F)(F)C(F)(F)C(F)(F)C(F)(F)C(F)(F)C(F)(F)C(F)(F)C(F)(F)F)C(=O)O (centres unmarked) [Example 7, CF3(CF2)7(CH2)2OCOCH2CH(COOH)CH2COOH] | 0.25 | −1.5 | −1.3 | ⊙ (magnetic deterioration rate is 1% or less) | ⊙ (magnetic deterioration rate is 1% or less)
12 | O=C(O)CC(CC(=O)OCCCCCCC(F)(F)C(F)(F)C(F)(F)C(F)(F)C(F)(F)C(F)(F)C(F)(F)C(F)(F)F)C(=O)O (centres unmarked) [Example 8, CF3(CF2)7(CH2)6OCOCH2CH(COOH)CH2COOH] | 0.22 | −0.8 | −0.5 | ⊙ (magnetic deterioration rate is 1% or less) | ⊙ (magnetic deterioration rate is 1% or less)
13 | O=C(O)CC(CC(=O)OCCCCCCCCCCCC(F)(F)C(F)(F)C(F)(F)C(F)(F)C(F)(F)C(F)(F)C(F)(F)C(F)(F)F)C(=O)O (centres unmarked) [Example 9, CF3(CF2)7(CH2)11OCOCH2CH(COOH)CH2COOH] | 0.18 | −0.8 | −0.3 | ⊙ (magnetic deterioration rate is 1% or less) | ⊙ (magnetic deterioration rate is 1% or less)
14 | O=C(O)CC(CC(=O)OCCCCCCC(F)(F)C(F)(F)C(F)(F)C(F)(F)F)C(=O)O (centres unmarked) [Example 10, CF3(CF2)3(CH2)6OCOCH2CH(COOH)CH2COOH] | 0.23 | −1.5 | −1.0 | ⊙ (magnetic deterioration rate is 1% or less) | ⊙ (magnetic deterioration rate is 1% or less)
15 | C11H23COORfeOCOC11H23 [Comparative Example 5, reference compound] | 0.50 | −3.0 | −4.0 | – | –
16 | C18H37CH(COOC12H25)(CH2)2COOCH2CF2(OCF2)p(OCF(CF3)CF2)qOCF3 [Comparative Example 3, reference compound] | 0.30 | −3.0 | −3.0 | – | –
